Laboratory results reported in ChEMBL document CHEMBL4811258, “Potent Antimalarials with Development Potential Identified by Structure-Guided Computational Optimization of a Pyrrole-Based Dihydroorotate Dehydrogenase Inhibitor Series” (J Med Chem, 2021).

Experiments:
[1] = tested on: Plasmodium falciparum; conditions: 3D70087/N9, time 4.0 day
[2] = human, plasma
[3] = rat, plasma
[4] = mouse, plasma
[5] = Sprague-Dawley, rat, in vivo, po, 10 mg/kg, 24 h

SMILES	AUCED90 [1] [µM·h]	PPB [2] [%]	PPB [3] [%]	PPB [4] [%]	F [5] [%]
Cc1c(C2(c3ccc(C(F)(F)F)c(C#N)c3)CC2)c[nH]c1C(=O)NC(C)c1nc[nH]n1 (stereo in doubt; form 1) [listing 1 of 2 here]	< 16				
Cc1c(C2(c3ccc(C(F)(F)F)c(C#N)c3)CC2)c[nH]c1C(=O)NC(C)c1nc[nH]n1 (stereo in doubt; form 1) [listing 2 of 2 here]		98.5	98.2	97.9	73
